Test results as given in patent US20230173032A1, “Treatment of Hyperuricemia” (Frederiksberg Hospital, priority 2020, published 2023).
For at least one compound, name, drawing or mass did not settle the structure.

How the values were obtained:
[1] = LOSE-IT trial (NCT02905864): body weight change; assay type: in vivo, human
[2] = LOSE-IT trial (NCT02905864): change in serum urate; assay type: in vivo, human

SMILES: CCCCCCCCCCCCCCCC(=O)N[C@@H](CCC(=O)NCCCC[C@H](NC(=O)[C@H](C)NC(=O)[C@H](C)NC(=O)[C@H](CCC(N)=O)NC(=O)CNC(=O)[C@H](CCC(=O)O)NC(=O)[C@H](CC(C)C)NC(=O)[C@H](Cc1ccc(O)cc1)NC(=O)[C@H](CO)NC(=O)[C@H](CO)NC(=O)[C@@H](NC(=O)[C@H](CC(=O)O)NC(=O)[C@H](CO)NC(=O)[C@@H](NC(=O)[C@H](Cc1ccccc1)NC(=O)[C@@H](NC(=O)CNC(=O)[C@H](CCC(=O)O)NC(=O)[C@H](C)NC(=O)[C@@H](N)Cc1cnc[nH]1)[C@@H](C)O)[C@@H](C)O)C(C)C)C(=O)N[C@@H](CCC(=O)O)C(=O)N[C@@H](Cc1ccccc1)C(=O)N[C@H](C(=O)N[C@@H](C)C(=O)N[C@@H](Cc1c[nH]c2ccccc12)C(=O)N[C@@H](CC(C)C)C(=O)N[C@H](C(=O)N[C@@H](CCCNC(=N)N)C(=O)NCC(=O)N[C@@H](CCCNC(=N)N)C(=O)NCC(=O)O)C(C)C)[C@@H](C)CC)C(=O)O [liraglutide, Arg34, Lys26-(N-epsilon-(gamma-L-glutamyl(N-alfa-hexadecanoyl)))-GLP-I(7-37)]
- mean weight-loss difference between Liraglutide and placebo, urate quartile Q3 ([1]; SE 2.50): −2.37
- mean weight-loss difference between Liraglutide and placebo, urate quartile Q2 ([1]; SE 3.06): -4.76 kg
- mean weight-loss difference between Liraglutide and placebo, urate quartile Q4 ([1]; highest urate quartile, SE 2.85): −4.46
- additional weight loss ([1]; liraglutide 3 mg/day, week 0 to 52, after 8-week intensive diet, overweight and obese individuals with knee joint pain, SE 1.2, n 71): 4.1 kg
- mean weight-loss difference between Liraglutide and placebo, urate quartile Q1 ([1]; lowest urate quartile, SE 2.51): -6.95 kg
- patients in the highest urate quartile reaching treatment target 6 mg/dL ([2]; 52 weeks of follow-up, 27% in the placebo group): around 68%
- further mean decrease in serum urate ([2]; liraglutide 3 mg/day, week 0 to 52, SE 0.11, n 69): 0.48 mg/dL
- number needed to treat (NNT) ([2]; target 6 mg/dL, highest urate quartile, 52 weeks, conservatively rounded to 3): 2.12
- benefit compared to placebo by serum urate quartile at enrolment ([2]; upper quartile (highest background serum urate, n=34), FIG. 2): largest benefit
- serum urate effect when excluding patients with concomitant type-2 diabetes ([2]; upper quartile, 5 patients out of 34 excluded, FIG. 3): the effect remained unchanged
- between-group difference in serum urate change (liraglutide vs placebo) ([2]; week 0 to 52, ANCOVA, 95% CI −0.69 to −0.12, n 134): -0.40 mg/dL
